Experimental data taken from article PMC4786428, “Recombinational branch migration by the RadA/Sms paralog of RecA in Escherichia coli”.
Residue numbers refer to the chain shown, from its start. The comparison behind a weaker result is the experiment's own reference, which may not be listed here. Where a protein sequence is shown, tags need not be part of it.

Key:
Assay in all cases: EMSA
Conditions in all cases: 1 mM ADP, defective relative to wild type; 50 mM Tris-HCl pH 7.5, 10 mM MgCl2, 0.1 mM EDTA, 75 mM NaCl, 5 mM DTT, 100 ug/ml BSA, 1 mM nucleotide, 100 fmol DNA, 37 C for 20-30 min; recombinant protein; residues 1-460; label: 5' 32P (unlabeled as competitor); single-stranded DNA
[1] = target: T1, RadA K258A (Escherichia coli) (UniProt P24554)
T1 sequence (looked up): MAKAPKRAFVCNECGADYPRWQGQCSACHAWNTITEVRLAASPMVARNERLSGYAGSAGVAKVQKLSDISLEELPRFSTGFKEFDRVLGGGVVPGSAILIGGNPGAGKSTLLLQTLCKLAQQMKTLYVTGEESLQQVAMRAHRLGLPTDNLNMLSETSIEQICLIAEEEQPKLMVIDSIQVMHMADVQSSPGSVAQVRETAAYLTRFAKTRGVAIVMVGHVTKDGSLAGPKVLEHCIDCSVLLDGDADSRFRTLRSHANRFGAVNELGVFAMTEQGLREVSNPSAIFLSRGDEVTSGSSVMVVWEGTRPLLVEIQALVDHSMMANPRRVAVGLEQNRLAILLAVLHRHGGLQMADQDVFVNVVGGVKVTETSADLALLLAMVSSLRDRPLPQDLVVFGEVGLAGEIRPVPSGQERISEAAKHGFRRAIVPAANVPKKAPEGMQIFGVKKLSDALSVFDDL

[2] = target: T2, RadA C28Y (Escherichia coli) (UniProt P24554)
T2 sequence (looked up): T1 sequence (looked up) with C28Y, A258K

[3] = target: T3, RadA K108R (Escherichia coli) (UniProt P24554)
T3 sequence (looked up): T1 sequence (looked up) with K108R, A258K

Measured: binding result

TTTTTTTTTTTTTTTTTTTTTTTTTTTTTT [poly(dT)30]
binds more weakly: [1] | [2] | [3]
